Source: patent US20110064746A1 (published 2011)

Amino acid sequences for entries named in this document (tags omitted). Residues count along the entry.
UniProt P63158: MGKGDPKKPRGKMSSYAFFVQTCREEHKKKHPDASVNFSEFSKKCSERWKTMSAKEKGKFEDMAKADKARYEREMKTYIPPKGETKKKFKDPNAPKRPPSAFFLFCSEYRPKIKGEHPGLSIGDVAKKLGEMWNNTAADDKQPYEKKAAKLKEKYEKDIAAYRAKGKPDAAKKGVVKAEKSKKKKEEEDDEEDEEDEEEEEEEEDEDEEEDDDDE
UniProt P24807, residues 27-53: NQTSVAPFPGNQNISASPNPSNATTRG

Biological target: mouse HMGB1 (mouse) (UniProt P63158)
Experiment: anti-CD24 immunoprecipitation of WT spleen lysates, EDTA elution, mass spectrometry (peptides of Table 1)

With “mouse CD24 (from UniProt P24807 27-53) (receptor)” the binding was “binds”.

No constants are given. Whether binding was seen depends on the method and setting. In cells and extracts the contact can be indirect. Here binding means that the protein was enriched with, or labelled near, the bait; the list need not be complete.
